Data published in paper PMC5548489.

The chains behind the UniProt entries cited, without tags or fusion partners.
UniProt P03372: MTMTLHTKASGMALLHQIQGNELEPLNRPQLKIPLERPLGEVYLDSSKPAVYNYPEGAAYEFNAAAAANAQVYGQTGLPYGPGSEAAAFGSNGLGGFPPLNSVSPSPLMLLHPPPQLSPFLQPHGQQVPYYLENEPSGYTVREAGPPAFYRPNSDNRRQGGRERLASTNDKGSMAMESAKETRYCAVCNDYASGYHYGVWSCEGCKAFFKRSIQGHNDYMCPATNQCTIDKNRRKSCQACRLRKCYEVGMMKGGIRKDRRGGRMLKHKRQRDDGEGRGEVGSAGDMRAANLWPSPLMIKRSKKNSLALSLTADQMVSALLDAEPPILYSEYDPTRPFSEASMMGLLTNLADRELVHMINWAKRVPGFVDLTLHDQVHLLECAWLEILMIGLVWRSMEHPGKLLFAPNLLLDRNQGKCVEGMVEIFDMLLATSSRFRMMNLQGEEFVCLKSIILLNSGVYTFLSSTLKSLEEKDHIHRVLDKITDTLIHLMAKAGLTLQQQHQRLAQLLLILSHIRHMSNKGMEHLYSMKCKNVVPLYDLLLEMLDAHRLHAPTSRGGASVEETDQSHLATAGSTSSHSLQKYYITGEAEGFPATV

Biological target: estrogen receptor alpha (ER) (human (endogenous in MCF-7 and ZR-75)) (UniProt P03372)
Assay: affinity purification with mass spectrometry; anti-ER antibody (Santa Cruz sc-8002) on Dynabeads Protein G, 1.5 mg lysate of MCF-7 or ZR-75 cells overnight at 4°C; cells starved, vehicle or 10 µM ERX-11 for 2 hr, then 10 nM E2 for 2 hr; the named proteins are ER binders whose co-precipitation was disrupted by ERX-11

Binder	binding
CPSF2 (protein, UniProt Q9P2I0 1-782) MTSIIKLTTLSGVQEESALCYLLQVDEFRFLLDCGWDEHFSMDIIDSLRKHVHQIDAVLLSHPDPLHLGALPYAVGKLGLNCAIYATIPVYKMGQMFMYDLYQSRHNTEDFTLFTLDDVDAAFDKIQQLKFSQIVNLKGKGHGLSITPLPAGHMIGGTIWKIVKDGEEEIVYAVDFNHKREIHLNGCSLEMLSRPSLLITDSFNATYVQPRRKQRDEQLLTNVLETLRGDGNVLIAVDTAGRVLELAQLLDQIWRTKDAGLGVYSLALLNNVSYNVVEFSKSQVEWMSDKLMRCFEDKRNNPFQFRHLSLCHGLSDLARVPSPKVVLASQPDLECGFSRDLFIQWCQDPKNSIILTYRTTPGTLARFLIDNPSEKITEIELRKRVKLEGKELEEYLEKEKLKKEAAKKLEQSKEADIDSSDESDIEEDIDQPSAHKTKHDLMMKGEGSRKGSFFKQAKKSYPMFPAPEERIKWDEYGEIIKPEDFLVPELQATEEEKSKLESGLTNGDEPMDQDLSDVPTKCISTTESIEIKARVTYIDYEGRSDGDSIKKIINQMKPRQLIIVHGPPEASQDLAECCRAFGGKDIKVYMPKLHETVDATSETHIYQVRLKDSLVSSLQFCKAKDAELAWIDGVLDMRVSKVDTGVILEEGELKDDGEDSEMQVEAPSDSSVIAQQKAMKSLFGDDEKETGEESEIIPTLEPLPPHEVPGHQSVFMNEPRLSDFKQVLLREGIQAEFVGGVLVCNNQVAVRRTETGRIGLEGCLCQDFYRIRDLLYEQYAIV	binds
HNRNPLL (protein, UniProt Q8WVV9 1-542) MSSSSSSPRETYEEDREYESQAKRLKTEEGEIDYSAEEGENRREATPRGGGDGGGGGRSFSQPEAGGSHHKVSVSPVVHVRGLCESVVEADLVEALEKFGTICYVMMMPFKRQALVEFENIDSAKECVTFAADEPVYIAGQQAFFNYSTSKRITRPGNTDDPSGGNKVLLLSIQNPLYPITVDVLYTVCNPVGKVQRIVIFKRNGIQAMVEFESVLCAQKAKAALNGADIYAGCCTLKIEYARPTRLNVIRNDNDSWDYTKPYLGRRDRGKGRQRQAILGEHPSSFRHDGYGSHGPLLPLPSRYRMGSRDTPELVAYPLPQASSSYMHGGNPSGSVVMVSGLHQLKMNCSRVFNLFCLYGNIEKVKFMKTIPGTALVEMGDEYAVERAVTHLNNVKLFGKRLNVCVSKQHSVVPSQIFELEDGTSSYKDFAMSKNNRFTSAGQASKNIIQPPSCVLHYYNVPLCVTEETFTKLCNDHEVLTFIKYKVFDAKPSAKTLSGLLEWECKTDAVEALTALNHYQIRVPNGSNPYTLKLCFSTSSHL	binds
HNRNPR (protein, UniProt O43390 1-633) MANQVNGNAVQLKEEEEPMDTSSVTHTEHYKTLIEAGLPQKVAERLDEIFQTGLVAYVDLDERAIDALREFNEEGALSVLQQFKESDLSHVQNKSAFLCGVMKTYRQREKQGSKVQESTKGPDEAKIKALLERTGYTLDVTTGQRKYGGPPPDSVYSGVQPGIGTEVFVGKIPRDLYEDELVPLFEKAGPIWDLRLMMDPLSGQNRGYAFITFCGKEAAQEAVKLCDSYEIRPGKHLGVCISVANNRLFVGSIPKNKTKENILEEFSKVTEGLVDVILYHQPDDKKKNRGFCFLEYEDHKSAAQARRRLMSGKVKVWGNVVTVEWADPVEEPDPEVMAKVKVLFVRNLATTVTEEILEKSFSEFGKLERVKKLKDYAFVHFEDRGAAVKAMDEMNGKEIEGEEIEIVLAKPPDKKRKERQAARQASRSTAYEDYYYHPPPRMPPPIRGRGRGGGRGGYGYPPDYYGYEDYYDDYYGYDYHDYRGGYEDPYYGYDDGYAVRGRGGGRGGRGAPPPPRGRGAPPPRGRAGYSQRGAPLGPPRGSRGGRGGPAQQQRGRGSRGSRGNRGGNVGGKRKADGYNQPDSKRRQTNNQQNWGSQPIAQQPLQQGGDYSGNYGYNNDNQEFYQDTYGQQWK	binds
CSTF3 (protein, UniProt Q12996 1-717) MSGDGATEQAAEYVPEKVKKAEKKLEENPYDLDAWSILIREAQNQPIDKARKTYERLVAQFPSSGRFWKLYIEAEIKAKNYDKVEKLFQRCLMKVLHIDLWKCYLSYVRETKGKLPSYKEKMAQAYDFALDKIGMEIMSYQIWVDYINFLKGVEAVGSYAENQRITAVRRVYQRGCVNPMINIEQLWRDYNKYEEGINIHLAKKMIEDRSRDYMNARRVAKEYETVMKGLDRNAPSVPPQNTPQEAQQVDMWKKYIQWEKSNPLRTEDQTLITKRVMFAYEQCLLVLGHHPDIWYEAAQYLEQSSKLLAEKGDMNNAKLFSDEAANIYERAISTLLKKNMLLYFAYADYEESRMKYEKVHSIYNRLLAIEDIDPTLVYIQYMKFARRAEGIKSGRMIFKKAREDTRTRHHVYVTAALMEYYCSKDKSVAFKIFELGLKKYGDIPEYVLAYIDYLSHLNEDNNTRVLFERVLTSGSLPPEKSGEIWARFLAFESNIGDLASILKVEKRRFTAFKEEYEGKETALLVDRYKFMDLYPCSASELKALGYKDVSRAKLAAIIPDPVVAPSIVPVLKDEVDRKPEYPKPDTQQMIPFQPRHLAPPGLHPVPGGVFPVPPAAVVLMKLLPPPICFQGPFVQVDELMEIFRRCKIPNTVEEAVRIITGGAPELAVEGNGPVESNAVLTKAVKRPNEDSDEDEEKGAVVPPVHDIYRARQQKRIR	binds
DKC1 (protein, UniProt O60832 1-514) MADAEVIILPKKHKKKKERKSLPEEDVAEIQHAEEFLIKPESKVAKLDTSQWPLLLKNFDKLNVRTTHYTPLACGSNPLKREIGDYIRTGFINLDKPSNPSSHEVVAWIRRILRVEKTGHSGTLDPKVTGCLIVCIERATRLVKSQQSAGKEYVGIVRLHNAIEGGTQLSRALETLTGALFQRPPLIAAVKRQLRVRTIYESKMIEYDPERRLGIFWVSCEAGTYIRTLCVHLGLLLGVGGQMQELRRVRSGVMSEKDHMVTMHDVLDAQWLYDNHKDESYLRRVVYPLEKLLTSHKRLVMKDSAVNAICYGAKIMLPGVLRYEDGIEVNQEIVVITTKGEAICMAIALMTTAVISTCDHGIVAKIKRVIMERDTYPRKWGLGPKASQKKLMIKQGLLDKHGKPTDSTPATWKQEYVDYSESAKKEVVAEVVKAPQVVAEAAKTAKRKRESESESDETPPAAPQLIKKEKKKSKKDKKAKAGLESGAEPGDGDSDTTKKKKKKKKAKEVELVSE	binds

Second part, the binder after the results:

binding	Binder
binds	RBM14 (protein, UniProt Q96PK6 1-669) MKIFVGNVDGADTTPEELAALFAPYGTVMSCAVMKQFAFVHMRENAGALRAIEALHGHELRPGRALVVEMSRPRPLNTWKIFVGNVSAACTSQELRSLFERRGRVIECDVVKDYAFVHMEKEADAKAAIAQLNGKEVKGKRINVELSTKGQKKGPGLAVQSGDKTKKPGAGDTAFPGTGGFSATFDYQQAFGNSTGGFDGQARQPTPPFFGRDRSPLRRSPPRASYVAPLTAQPATYRAQPSVSLGAAYRAQPSASLGVGYRTQPMTAQAASYRAQPSVSLGAPYRGQLASPSSQSAAASSLGPYGGAQPSASALSSYGGQAAAASSLNSYGAQGSSLASYGNQPSSYGAQAASSYGVRAAASSYNTQGAASSLGSYGAQAASYGAQSAASSLAYGAQAASYNAQPSASYNAQSAPYAAQQAASYSSQPAAYVAQPATAAAYASQPAAYAAQATTPMAGSYGAQPVVQTQLNSYGAQASMGLSGSYGAQSAAAATGSYGAAAAYGAQPSATLAAPYRTQSSASLAASYAAQQHPQAAASYRGQPGNAYDGAGQPSAAYLSMSQGAVANANSTPPPYERTRLSPPRASYDDPYKKAVAMSKRYGSDRRLAELSDYRRLSESQLSFRRSPTKSSLDYRRLPDAHSDYARYSGSYNDYLRAAQMHSGYQRRM
binds	SART1 (protein, UniProt O43290 1-800) MGSSKKHRGEKEAAGTTAAAGTGGATEQPPRHREHKKHKHRSGGSGGSGGERRKRSRERGGERGSGRRGAEAEARSSTHGRERSQAEPSERRVKREKRDDGYEAAASSKTSSGDASSLSIEETNKLRAKLGLKPLEVNAIKKEAGTKEEPVTADVINPMALRQREELREKLAAAKEKRLLNQKLGKIKTLGEDDPWLDDTAAWIERSRQLQKEKDLAEKRAKLLEEMDQEFGVSTLVEEEFGQRRQDLYSARDLQGLTVEHAIDSFREGETMILTLKDKGVLQEEEDVLVNVNLVDKERAEKNVELRKKKPDYLPYAEDESVDDLAQQKPRSILSKYDEELEGERPHSFRLEQGGTADGLRERELEEIRAKLRLQAQSLSTVGPRLASEYLTPEEMVTFKKTKRRVKKIRKKEKEVVVRADDLLPLGDQTQDGDFGSRLRGRGRRRVSEVEEEKEPVPQPLPSDDTRVENMDISDEEEGGAPPPGSPQVLEEDEAELELQKQLEKGRRLRQLQQLQQLRDSGEKVVEIVKKLESRQRGWEEDEDPERKGAIVFNATSEFCRTLGEIPTYGLAGNREEQEELMDFERDEERSANGGSESDGEENIGWSTVNLDEEKQQQDFSASSTTILDEEPIVNRGLAAALLLCQNKGLLETTVQKVARVKAPNKSLPSAVYCIEDKMAIDDKYSRREEYRGFTQDFKEKDGYKPDVKIEYVDETGRKLTPKEAFRQLSHRFHGKGSGKMKTERRMKKLDEEALLKKMSSSDTPLGTVALLQEKQKAQKTPYIVLSGSGKSMNANTITK
binds	SF1 (protein, UniProt Q15637 1-639) MATGANATPLDFPSKKRKRSRWNQDTMEQKTVIPGMPTVIPPGLTREQERAYIVQLQIEDLTRKLRTGDLGIPPNPEDRSPSPEPIYNSEGKRLNTREFRTRKKLEEERHNLITEMVALNPDFKPPADYKPPATRVSDKVMIPQDEYPEINFVGLLIGPRGNTLKNIEKECNAKIMIRGKGSVKEGKVGRKDGQMLPGEDEPLHALVTANTMENVKKAVEQIRNILKQGIETPEDQNDLRKMQLRELARLNGTLREDDNRILRPWQSSETRSITNTTVCTKCGGAGHIASDCKFQRPGDPQSAQDKARMDKEYLSLMAELGEAPVPASVGSTSGPATTPLASAPRPAAPANNPPPPSLMSTTQSRPPWMNSGPSESRPYHGMHGGGPGGPGGGPHSFPHPLPSLTGGHGGHPMQHNPNGPPPPWMQPPPPPMNQGPHPPGHHGPPPMDQYLGSTPVGSGVYRLHQGKGMMPPPPMGMMPPPPPPPSGQPPPPPSGPLPPWQQQQQQPPPPPPPSSSMASSTPLPWQQNTTTTTTSAGTGSIPPWQQQQAAAAASPGAPQMQGNPTMVPLPPGVQPPLPPGAPPPPPPPPPGSAGMMYAPPPPPPPPMDPSNFVTMMGMGVAGMPPFGMPPAPPPPPPQN

Results are given in words; binding and its absence hold for the method and conditions named. In cells and extracts the contact can be indirect. These calls come from enrichment with a bait or labelling near it, and not all partners need be listed.
